Test results published in PMC7704619.
These are yes or no findings as the source states them, for the method shown. Binding seen in cells or lysates may run through a third protein. Some entries that bind do so weakly or less than the wild type. Tags and fused reporters may be left off the sequences shown.

Molecular target: T1, Flag-tagged STAT6 (signal transducer and activator of transcription 6) (UniProt P42226)
T1 sequence: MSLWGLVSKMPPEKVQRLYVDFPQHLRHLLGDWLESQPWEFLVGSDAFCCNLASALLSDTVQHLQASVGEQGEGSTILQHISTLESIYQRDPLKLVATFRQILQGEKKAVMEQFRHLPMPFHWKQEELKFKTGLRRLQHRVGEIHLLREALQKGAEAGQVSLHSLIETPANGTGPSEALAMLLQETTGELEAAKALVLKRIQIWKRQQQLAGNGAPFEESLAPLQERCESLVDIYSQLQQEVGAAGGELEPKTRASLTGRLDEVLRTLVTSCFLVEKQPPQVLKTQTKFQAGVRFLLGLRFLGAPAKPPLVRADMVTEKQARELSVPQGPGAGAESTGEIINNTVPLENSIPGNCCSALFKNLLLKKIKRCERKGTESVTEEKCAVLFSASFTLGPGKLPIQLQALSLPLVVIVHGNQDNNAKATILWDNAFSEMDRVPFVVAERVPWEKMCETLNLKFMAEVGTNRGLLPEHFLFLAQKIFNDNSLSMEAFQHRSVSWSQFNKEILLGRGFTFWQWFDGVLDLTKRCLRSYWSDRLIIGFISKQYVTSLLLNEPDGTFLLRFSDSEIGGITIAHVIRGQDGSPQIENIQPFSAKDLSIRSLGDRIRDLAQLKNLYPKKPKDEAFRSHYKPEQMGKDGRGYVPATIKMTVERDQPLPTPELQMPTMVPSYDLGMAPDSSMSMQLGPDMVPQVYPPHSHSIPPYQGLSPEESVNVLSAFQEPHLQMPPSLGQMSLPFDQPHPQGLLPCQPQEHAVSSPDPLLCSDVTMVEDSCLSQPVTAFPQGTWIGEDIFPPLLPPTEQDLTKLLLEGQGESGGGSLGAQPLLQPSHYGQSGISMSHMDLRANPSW
Test: co-IP; HK2 cells co-transfected with Flag-STAT6 and myc-P62 for 24 h in serum free medium; lysates immunoprecipitated separately with Flag-conjugated agarose beads or myc-conjugated magnetic beads; immunoblot with anti-Flag and anti-myc; with or without bixin treatment

- binding: binds
Substance: myc-tagged P62 (SQSTM1) (from UniProt Q13501 1-440)
